Data as given in PubChem BioAssay AID1224828 (NIAID, 2016)
Purpose: 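Regulators linking TLR4 signalling to p65 nuclear translocation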 (primary screen). Cells: mouse RAW264.7 G9 macrophage reporter cells (GFP-p65, Tnf promoter-mCherry). Reagents: siRNA pool against mouse genes, 100 nM. Time to read-out: 2 days siRNA transfection, then 40 min LPS before fixation. Conditions: LPS (Salmonella minnesota R595) at 10 ng/ml. Measurement: 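Microscopy ratio of nuclear to perinuclear-ring GFP-p65 signal, scaled to the plate median; gene score is the average of two replicate robust z-scores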. Scale: p65 translocation robust z-score: higher = more nuclear NF-kappaB p65 after LPS than the plate median; nuclear/cytoplasmic p65 ratio: higher = more nuclear NF-kappaB p65. Rule for the call: 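Active if robust z is above 3.3 (negative regulators) or below -1.56, the Tlr4 control median (positive regulators); activity score 50 or more; control wells not called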. Meaning of the calls: active = hit (p65 shift raised or lowered); inactive = no clear change.
Here is an unselected part of about 17,000 reagents. In the full data, 762 (4.5%) got an active call. 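Active calls include both raised and lowered p65 entry, mostly lowered; wells with fewer than 50 cells lack a z-score.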 The raw values are shown without normalisation. Unmarked entries are inactive. Some reagents were tested in more than one well and are listed for each. Reagent sequences are not shown.

gene knocked down	p65 translocation robust z-score	nuclear/cytoplasmic p65 ratio, rep 1	nuclear/cytoplasmic p65 ratio, rep 2	low cell count flag
Hmg20b (high mobility group 20B)	-2.5 (active)	1.34	1.2	enough cells to score
Tmsb15l (thymosin beta 15b like)	0.37	1.29	1.36	enough cells to score
Lamb3 (laminin, beta 3)	1.46	1.66	1.58	enough cells to score
Nectin1 (nectin cell adhesion molecule 1)	0.75	1.63	1.61	enough cells to score
Or5w10 (olfactory receptor family 5 subfamily W member 10)	-1.62 (active)	1.43	1.33	enough cells to score
Efhd1 (EF hand domain containing 1)	-0.28	1.29	1.33	enough cells to score
Zim1 (zinc finger, imprinted 1)		1.09	0.999	fewer than 50 cells per well; well left out of scoring
Ppp2r5b (protein phosphatase 2, regulatory subunit B', beta)	0.9	1.64	1.5	enough cells to score
Huwe1 (HECT, UBA and WWE domain containing 1)	-0.29	1.46	1.47	enough cells to score
Efna3 (ephrin A3)	0.8	1.63	1.42	enough cells to score
Zdhhc5 (zinc finger, DHHC domain containing 5)		1.29	1.14	fewer than 50 cells per well; well left out of scoring
Mfap3 (microfibrillar-associated protein 3)	-0.94	1.37	1.24	enough cells to score
Krt90 (keratin 90)		1.3	1.28	fewer than 50 cells per well; well left out of scoring
Rorb (RAR-related orphan receptor beta)	-0.68	1.47	1.37	enough cells to score
Apba2 (amyloid beta precursor protein binding family A member 2)	0.93	1.61	1.77	enough cells to score
Ercc2	0.45	1.58	1.38	enough cells to score
Zfp281 (zinc finger protein 281)	-0.36	1.52	1.4	enough cells to score
Trappc13 (trafficking protein particle complex 13)		1.2	1.43	fewer than 50 cells per well; well left out of scoring
Padi3 (peptidyl arginine deiminase, type III)		1.56	1.33	fewer than 50 cells per well; well left out of scoring
Prl2c2 (prolactin family 2, subfamily c, member 2)	1.08	1.54	1.32	enough cells to score
Rfng (RFNG O-fucosylpeptide 3-beta-N-acetylglucosaminyltransferase)	0.48	1.45	1.3	enough cells to score
Tarbp2 (TARBP2, RISC loading complex RNA binding subunit)	-0.46	1.42	1.49	enough cells to score
Ercc3	0.1	1.47	1.39	enough cells to score
Ffar1 (free fatty acid receptor 1)	-0.57	1.39	1.54	enough cells to score
Gpr173 (G-protein coupled receptor 173)	1.72	1.74	1.98	enough cells to score
Gpr173 (G-protein coupled receptor 173)		1.32	1.18	fewer than 50 cells per well; well left out of scoring
Col13a1 (collagen, type XIII, alpha 1)	0.16	1.55	1.86	enough cells to score
Ube2m (ubiquitin-conjugating enzyme E2M)	0.03	1.58	1.45	enough cells to score
Pex39 (peroxisomal biogenesis factor 39)		1.28	1.43	fewer than 50 cells per well; well left out of scoring
Ifna11 (interferon alpha 11)	0.52	1.6	1.4	enough cells to score
Suclg1 (succinate-CoA ligase, GDP-forming, alpha subunit)	-0.19	1.29	1.3	enough cells to score
Or8b1 (olfactory receptor family 8 subfamily B member 1)	-0.8	1.22	1.27	enough cells to score
Slc7a13	0.14	1.44	1.25	enough cells to score
Hand2 (heart and neural crest derivatives expressed 2)	0.13	1.28	1.56	enough cells to score
Lima1 (LIM domain and actin binding 1)	-1.42	1.37	1.54	enough cells to score
Gnal		1.37	1.42	fewer than 50 cells per well; well left out of scoring
Raet1b (retinoic acid early transcript beta)	0.33	1.32	1.34	enough cells to score
Chtop (chromatin target of PRMT1)	-0.79	1.3	1.22	enough cells to score
Or9s13 (olfactory receptor family 9 subfamily S member 13)	-1.8 (active)	1.43	1.19	enough cells to score
Epb41l1 (erythrocyte membrane protein band 4.1 like 1)	0.22	1.53	1.58	enough cells to score
Nbl1 (NBL1, DAN family BMP antagonist)	-1.16	1.33	1.17	enough cells to score
Tia1 (cytotoxic granule-associated RNA binding protein 1)	0.4	1.57	1.38	enough cells to score
Stk-ps2 (serine/threonine kinase 2)	-2.25 (active)	1.09	1.04	enough cells to score
Fgf7 (fibroblast growth factor 7)	0.18	1.44	1.42	enough cells to score
Slc9b2	-0.92	1.53	1.56	enough cells to score
Osm (oncostatin M)	-0.05	1.49	1.36	enough cells to score
4921522P10Rik (RIKEN cDNA 4921522P10 gene)		0	1.29	fewer than 50 cells per well; well left out of scoring
Tango2 (transport and golgi organization 2)	0.59	1.68	1.61	enough cells to score
Slc25a15	-0.84	1.44	1.36	enough cells to score
Ambra1 (autophagy/beclin 1 regulator 1)	-0.24	1.54	1.74	enough cells to score
Bkgd (beta-keto-L-gulonate decarboxylase)	0.49	1.32	1.27	enough cells to score
Poln (DNA polymerase N)	2.19	1.83	1.46	enough cells to score
Ndc80 (NDC80 kinetochore complex component)		1.26	1.2	fewer than 50 cells per well; well left out of scoring
Noc2l (NOC2 like nucleolar associated transcriptional repressor)	-1.66 (active)	1.25	1.54	enough cells to score
Rhoa (ras homolog family member A)	1.48	1.77	1.68	enough cells to score
Cry2 (cryptochrome circadian regulator 2)	-1.24	1.38	1.59	enough cells to score
Fchsd1 (FCH and double SH3 domains 1)	0.3	1.63	1.51	enough cells to score
Noazfp (nucleolar atypical zinc finger)	-0.11	1.4	1.24	enough cells to score
Vmn1r212 (vomeronasal 1 receptor 212)	0.29	1.31	1.26	enough cells to score
Or4k45 (olfactory receptor family 4 subfamily K member 45)	0.35	1.58	1.54	enough cells to score
Dnajb12 (DnaJ heat shock protein family (Hsp40) member B12)	1.27	1.45	1.69	enough cells to score
Cnnm2 (cyclin M2)	-1.31	1.53	1.21	enough cells to score
Slc17a1	1.28	1.59	1.39	enough cells to score
Cdc42bpg (CDC42 binding protein kinase gamma)		1.55	1.4	fewer than 50 cells per well; well left out of scoring
Nup188 (nucleoporin 188)	-1.68 (active)	1.45	1.2	enough cells to score
Mprip (myosin phosphatase Rho interacting protein)	0.56	1.55	1.5	enough cells to score
Dlst (dihydrolipoamide S-succinyltransferase)	1.25	1.7	1.5	enough cells to score
Abcc6 (ATP-binding cassette, sub-family C member 6)	-0.22	1.58	1.58	enough cells to score
Ganc (glucosidase, alpha; neutral C)		1.2	1.39	fewer than 50 cells per well; well left out of scoring
Nemp1 (nuclear envelope integral membrane protein 1)	-0.34	1.44	1.79	enough cells to score
5830416A07RIK	-0.99	1.32	1.33	enough cells to score
Usp45 (ubiquitin specific petidase 45)	-0.46	1.18	1.28	enough cells to score
Tmem220 (transmembrane protein 220)	-0.6	1.4	1.44	enough cells to score
Or13c7c (olfactory receptor family 13 subfamily C member 7C)	-1.52	1.4	1.21	enough cells to score
Aff1 (AF4/FMR2 family, member 1)	-0.16	1.67	1.64	enough cells to score

Active calls, among the entries above:
gene knocked down	p65 translocation robust z-score	nuclear/cytoplasmic p65 ratio, rep 1	nuclear/cytoplasmic p65 ratio, rep 2	low cell count flag
Hmg20b (high mobility group 20B)	-2.5 (active)	1.34	1.2	enough cells to score
Or5w10 (olfactory receptor family 5 subfamily W member 10)	-1.62 (active)	1.43	1.33	enough cells to score
Or9s13 (olfactory receptor family 9 subfamily S member 13)	-1.8 (active)	1.43	1.19	enough cells to score
Stk-ps2 (serine/threonine kinase 2)	-2.25 (active)	1.09	1.04	enough cells to score
Noc2l (NOC2 like nucleolar associated transcriptional repressor)	-1.66 (active)	1.25	1.54	enough cells to score
Nup188 (nucleoporin 188)	-1.68 (active)	1.45	1.2	enough cells to score
